Source: patent US20160002357A1
Results are given in words; binding and its absence hold for the method and conditions named. Some entries that bind do so weakly or less than the wild type.

Sequences of proteins named here, by UniProt entry; tags and fusion partners are left off. Residues count along the entry.
UniProt P22223, residues 108-654: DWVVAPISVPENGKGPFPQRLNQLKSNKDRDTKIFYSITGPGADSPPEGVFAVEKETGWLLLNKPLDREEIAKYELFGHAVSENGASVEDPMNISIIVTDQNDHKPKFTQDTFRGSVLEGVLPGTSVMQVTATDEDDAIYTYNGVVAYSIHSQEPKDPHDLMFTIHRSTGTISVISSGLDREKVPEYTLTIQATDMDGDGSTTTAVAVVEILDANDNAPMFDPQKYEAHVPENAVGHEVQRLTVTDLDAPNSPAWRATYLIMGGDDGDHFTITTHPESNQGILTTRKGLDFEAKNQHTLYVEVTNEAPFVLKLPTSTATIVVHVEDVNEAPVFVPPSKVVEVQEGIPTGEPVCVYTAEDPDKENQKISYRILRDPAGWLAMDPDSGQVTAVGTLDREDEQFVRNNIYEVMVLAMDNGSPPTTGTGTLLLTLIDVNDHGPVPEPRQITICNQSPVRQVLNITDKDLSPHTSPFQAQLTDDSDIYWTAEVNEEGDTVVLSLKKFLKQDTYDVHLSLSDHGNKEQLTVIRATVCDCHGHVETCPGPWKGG

Columns and labels:
[1] = molecular target: human P-cadherin expressed on the cell surface (human) (UniProt P22223); assay: cell ELISA, H1650 cells
[2] = molecular target: Hu P-cadherin-Fc (human) (UniProt P22223); assay: ELISA

B1: 35 EK-DART (bispecific antibody)
chain 1: QSVLTQPPSVSAAPGQKVTISCSGSSSNIGNNYVSWYQQLPGTAPKLLIYDNNKRPSGIPDRFSGSKSGTSATLGITGLQTGDEADYYCGTWDSSLSAVVFGGGTKLTVLGGGSGGGGEVQLVESGGGLVQPGGSLRLSCAASGFTFNTYAMNWVRQAPGKGLEWVARIRSKYNNYATYYADSVKDRFTISRDDSKNSLYLQMNSLKTEDTAVYYCVRHGNFGNSYVSWFAYWGQGTLVTVSSGGCGGGKVAALKEKVAALKEKVAALKEKVAALKE
chain 2: QAVVTQEPSLTVSPGGTVTLTCRSSTGAVTTSNYANWVQQKPGQAPRGLIGGTNKRAPWTPARFSGSLLGGKAALTITGAQAEDEADYYCALWYSNLWVFGGGTKLTVLGGGGSGGGGEVQLVQSGAEVKKPGASVKVSCKASGYTFTSYGISWVRQAPGQGLEWMGWISAYNGNTNYAQKLQGRVTMTTDTSTSTAYMELRSLRSDDTAVYYCATIDTASAFDIWGQGTMVTVSSGGCGGGEVAALEKEVAALEKEVAALEKEVAALEK
B1 was tested, and the binding [1] was “binds” and the binding [2] was “binds”.
